Results: the supplement of paper PMC10849652
This is one part of the list.

Protein sequences, listed by entry. Tags and fused reporters are not part of them. Lines headed by an entry give the natural chain unless they say otherwise; changes in a name come on top.
UniProt O14772: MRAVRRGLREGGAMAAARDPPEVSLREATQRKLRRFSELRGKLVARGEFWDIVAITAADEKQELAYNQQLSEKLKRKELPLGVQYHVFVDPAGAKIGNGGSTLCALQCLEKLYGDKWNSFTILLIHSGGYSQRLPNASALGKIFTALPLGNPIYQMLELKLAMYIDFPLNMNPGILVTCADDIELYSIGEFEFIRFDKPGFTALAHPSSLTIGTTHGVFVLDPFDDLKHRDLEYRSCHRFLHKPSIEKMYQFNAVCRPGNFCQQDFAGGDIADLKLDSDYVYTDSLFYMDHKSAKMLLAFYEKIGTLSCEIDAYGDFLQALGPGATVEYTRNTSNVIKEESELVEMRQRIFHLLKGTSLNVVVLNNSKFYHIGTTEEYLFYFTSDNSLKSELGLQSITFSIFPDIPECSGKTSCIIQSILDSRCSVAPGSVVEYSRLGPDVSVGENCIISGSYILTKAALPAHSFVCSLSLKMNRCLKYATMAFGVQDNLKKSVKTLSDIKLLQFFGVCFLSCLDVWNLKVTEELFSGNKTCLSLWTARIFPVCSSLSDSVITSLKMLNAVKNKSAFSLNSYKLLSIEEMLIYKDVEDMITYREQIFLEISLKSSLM
UniProt Q01415: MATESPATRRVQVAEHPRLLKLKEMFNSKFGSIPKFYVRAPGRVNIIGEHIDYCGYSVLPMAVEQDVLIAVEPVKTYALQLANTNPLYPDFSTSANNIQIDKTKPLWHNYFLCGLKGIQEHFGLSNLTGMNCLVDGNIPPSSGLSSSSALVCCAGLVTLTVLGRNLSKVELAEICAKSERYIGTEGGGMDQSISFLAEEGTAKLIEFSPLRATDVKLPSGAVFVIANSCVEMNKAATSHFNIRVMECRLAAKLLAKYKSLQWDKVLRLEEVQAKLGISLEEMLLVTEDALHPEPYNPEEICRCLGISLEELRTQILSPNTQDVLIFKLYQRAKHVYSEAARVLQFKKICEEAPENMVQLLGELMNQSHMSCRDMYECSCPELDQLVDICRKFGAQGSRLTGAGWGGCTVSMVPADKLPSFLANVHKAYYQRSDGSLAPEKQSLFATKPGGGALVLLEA
UniProt Q16595: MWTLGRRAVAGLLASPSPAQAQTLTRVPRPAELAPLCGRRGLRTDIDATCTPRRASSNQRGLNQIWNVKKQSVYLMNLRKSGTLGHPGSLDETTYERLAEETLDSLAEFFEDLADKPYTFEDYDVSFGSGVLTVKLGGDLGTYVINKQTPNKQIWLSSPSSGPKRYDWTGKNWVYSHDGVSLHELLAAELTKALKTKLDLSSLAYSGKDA
UniProt Q6ZNA5: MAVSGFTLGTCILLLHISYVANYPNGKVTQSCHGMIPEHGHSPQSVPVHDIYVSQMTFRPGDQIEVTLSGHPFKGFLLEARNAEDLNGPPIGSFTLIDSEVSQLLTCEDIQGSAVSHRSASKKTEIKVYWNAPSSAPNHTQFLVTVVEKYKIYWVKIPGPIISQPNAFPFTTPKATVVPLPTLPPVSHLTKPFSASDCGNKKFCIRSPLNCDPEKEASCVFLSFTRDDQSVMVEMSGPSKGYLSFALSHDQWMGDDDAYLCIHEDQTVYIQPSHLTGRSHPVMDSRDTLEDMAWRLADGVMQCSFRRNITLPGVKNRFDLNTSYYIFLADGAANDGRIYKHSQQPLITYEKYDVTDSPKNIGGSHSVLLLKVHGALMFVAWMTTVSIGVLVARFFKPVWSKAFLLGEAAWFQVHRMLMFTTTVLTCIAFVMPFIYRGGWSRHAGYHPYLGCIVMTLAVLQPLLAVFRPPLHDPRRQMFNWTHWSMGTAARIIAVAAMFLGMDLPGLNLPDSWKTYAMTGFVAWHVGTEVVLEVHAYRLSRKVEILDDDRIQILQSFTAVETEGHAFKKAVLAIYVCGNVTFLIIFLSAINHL
UniProt P04406: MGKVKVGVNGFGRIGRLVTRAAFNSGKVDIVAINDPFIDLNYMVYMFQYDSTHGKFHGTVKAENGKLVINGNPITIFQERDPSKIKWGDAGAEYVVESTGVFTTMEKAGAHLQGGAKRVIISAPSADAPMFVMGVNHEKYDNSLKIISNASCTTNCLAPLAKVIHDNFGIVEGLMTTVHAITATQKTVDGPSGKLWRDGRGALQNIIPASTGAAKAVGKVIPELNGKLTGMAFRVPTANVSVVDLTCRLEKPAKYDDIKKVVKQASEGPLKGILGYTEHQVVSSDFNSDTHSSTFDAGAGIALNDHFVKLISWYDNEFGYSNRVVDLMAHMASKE
UniProt Q96AE4: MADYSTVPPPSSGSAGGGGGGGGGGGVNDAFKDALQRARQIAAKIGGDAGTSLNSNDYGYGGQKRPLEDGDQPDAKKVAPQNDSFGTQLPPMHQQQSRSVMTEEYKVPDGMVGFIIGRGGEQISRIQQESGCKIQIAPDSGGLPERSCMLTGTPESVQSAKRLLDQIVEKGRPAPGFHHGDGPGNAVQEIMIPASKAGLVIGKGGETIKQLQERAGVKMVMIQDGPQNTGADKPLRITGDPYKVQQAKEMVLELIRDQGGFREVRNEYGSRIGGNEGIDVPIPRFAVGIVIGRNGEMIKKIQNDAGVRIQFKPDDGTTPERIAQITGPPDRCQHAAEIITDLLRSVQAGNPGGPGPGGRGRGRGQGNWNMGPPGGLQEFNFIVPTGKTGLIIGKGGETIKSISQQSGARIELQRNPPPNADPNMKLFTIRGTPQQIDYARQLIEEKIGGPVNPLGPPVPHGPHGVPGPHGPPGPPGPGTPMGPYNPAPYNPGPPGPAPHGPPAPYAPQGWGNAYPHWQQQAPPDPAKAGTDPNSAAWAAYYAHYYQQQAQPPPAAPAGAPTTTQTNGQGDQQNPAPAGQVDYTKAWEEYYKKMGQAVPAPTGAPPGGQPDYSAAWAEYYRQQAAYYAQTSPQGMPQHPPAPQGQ
UniProt Q8NCL4: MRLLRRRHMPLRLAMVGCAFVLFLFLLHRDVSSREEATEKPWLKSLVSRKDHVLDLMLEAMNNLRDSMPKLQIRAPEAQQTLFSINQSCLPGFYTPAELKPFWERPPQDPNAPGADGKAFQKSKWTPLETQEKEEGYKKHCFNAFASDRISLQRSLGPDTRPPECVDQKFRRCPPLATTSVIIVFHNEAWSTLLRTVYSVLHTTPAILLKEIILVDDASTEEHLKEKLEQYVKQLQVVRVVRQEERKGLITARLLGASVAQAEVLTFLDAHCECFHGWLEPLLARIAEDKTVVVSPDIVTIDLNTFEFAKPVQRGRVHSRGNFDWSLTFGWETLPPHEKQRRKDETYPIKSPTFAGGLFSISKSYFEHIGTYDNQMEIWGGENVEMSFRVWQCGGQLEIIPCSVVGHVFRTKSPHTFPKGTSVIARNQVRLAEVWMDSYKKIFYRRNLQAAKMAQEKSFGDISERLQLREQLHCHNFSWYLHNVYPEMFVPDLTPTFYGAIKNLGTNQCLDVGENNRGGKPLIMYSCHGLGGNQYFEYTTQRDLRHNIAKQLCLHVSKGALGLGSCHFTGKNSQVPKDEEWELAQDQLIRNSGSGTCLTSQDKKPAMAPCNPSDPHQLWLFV
UniProt Q9UET6: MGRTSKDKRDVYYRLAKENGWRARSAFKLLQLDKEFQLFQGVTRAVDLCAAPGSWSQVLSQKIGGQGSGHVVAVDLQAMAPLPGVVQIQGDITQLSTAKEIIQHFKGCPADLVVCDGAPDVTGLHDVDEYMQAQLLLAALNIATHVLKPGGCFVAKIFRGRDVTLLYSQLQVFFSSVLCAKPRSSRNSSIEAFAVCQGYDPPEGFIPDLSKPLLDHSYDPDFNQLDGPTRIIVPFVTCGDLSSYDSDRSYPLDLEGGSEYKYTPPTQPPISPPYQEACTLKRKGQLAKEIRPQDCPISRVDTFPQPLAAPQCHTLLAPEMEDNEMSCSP
UniProt P51116, whole entry, looked up: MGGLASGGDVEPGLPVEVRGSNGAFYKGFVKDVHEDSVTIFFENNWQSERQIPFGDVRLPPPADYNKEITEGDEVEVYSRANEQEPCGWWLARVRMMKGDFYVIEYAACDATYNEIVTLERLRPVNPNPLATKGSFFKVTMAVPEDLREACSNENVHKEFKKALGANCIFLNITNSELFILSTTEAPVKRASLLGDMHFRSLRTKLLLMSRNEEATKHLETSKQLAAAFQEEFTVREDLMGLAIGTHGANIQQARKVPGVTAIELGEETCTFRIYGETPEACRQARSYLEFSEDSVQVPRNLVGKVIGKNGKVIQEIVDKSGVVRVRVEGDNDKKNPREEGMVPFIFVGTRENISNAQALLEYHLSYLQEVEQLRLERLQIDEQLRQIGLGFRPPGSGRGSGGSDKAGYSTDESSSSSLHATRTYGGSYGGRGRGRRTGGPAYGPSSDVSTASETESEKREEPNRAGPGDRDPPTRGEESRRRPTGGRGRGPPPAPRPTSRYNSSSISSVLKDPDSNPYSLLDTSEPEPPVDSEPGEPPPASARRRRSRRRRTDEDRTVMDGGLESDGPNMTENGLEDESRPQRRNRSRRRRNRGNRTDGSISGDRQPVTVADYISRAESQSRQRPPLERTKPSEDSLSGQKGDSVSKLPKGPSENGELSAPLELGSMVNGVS
UniProt Q495W5: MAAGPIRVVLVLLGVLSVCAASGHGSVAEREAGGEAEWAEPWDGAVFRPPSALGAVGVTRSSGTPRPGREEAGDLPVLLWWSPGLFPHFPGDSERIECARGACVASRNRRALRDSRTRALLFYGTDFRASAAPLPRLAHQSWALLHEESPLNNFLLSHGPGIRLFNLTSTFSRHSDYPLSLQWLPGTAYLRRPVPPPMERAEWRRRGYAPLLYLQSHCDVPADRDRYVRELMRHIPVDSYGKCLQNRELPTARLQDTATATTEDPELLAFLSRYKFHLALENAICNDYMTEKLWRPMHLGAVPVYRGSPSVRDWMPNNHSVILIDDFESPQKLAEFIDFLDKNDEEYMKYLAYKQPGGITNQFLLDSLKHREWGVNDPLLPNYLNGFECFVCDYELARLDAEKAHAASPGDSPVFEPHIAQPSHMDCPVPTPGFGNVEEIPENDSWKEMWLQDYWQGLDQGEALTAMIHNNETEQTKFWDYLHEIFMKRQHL
UniProt Q96C23: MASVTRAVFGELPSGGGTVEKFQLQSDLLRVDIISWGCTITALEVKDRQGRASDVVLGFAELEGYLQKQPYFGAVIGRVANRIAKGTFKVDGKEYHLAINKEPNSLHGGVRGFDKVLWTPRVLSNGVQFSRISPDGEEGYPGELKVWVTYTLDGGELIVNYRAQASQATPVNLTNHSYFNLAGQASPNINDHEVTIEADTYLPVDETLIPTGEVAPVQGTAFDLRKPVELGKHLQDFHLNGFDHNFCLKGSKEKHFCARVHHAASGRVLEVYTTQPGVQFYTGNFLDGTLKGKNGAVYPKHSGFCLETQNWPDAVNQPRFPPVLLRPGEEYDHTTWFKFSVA
UniProt P02794, whole entry, looked up: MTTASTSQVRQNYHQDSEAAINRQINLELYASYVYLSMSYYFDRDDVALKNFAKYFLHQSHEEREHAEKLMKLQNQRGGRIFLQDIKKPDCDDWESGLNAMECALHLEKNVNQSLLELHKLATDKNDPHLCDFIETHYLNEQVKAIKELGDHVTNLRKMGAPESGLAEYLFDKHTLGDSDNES
UniProt Q9NZ52: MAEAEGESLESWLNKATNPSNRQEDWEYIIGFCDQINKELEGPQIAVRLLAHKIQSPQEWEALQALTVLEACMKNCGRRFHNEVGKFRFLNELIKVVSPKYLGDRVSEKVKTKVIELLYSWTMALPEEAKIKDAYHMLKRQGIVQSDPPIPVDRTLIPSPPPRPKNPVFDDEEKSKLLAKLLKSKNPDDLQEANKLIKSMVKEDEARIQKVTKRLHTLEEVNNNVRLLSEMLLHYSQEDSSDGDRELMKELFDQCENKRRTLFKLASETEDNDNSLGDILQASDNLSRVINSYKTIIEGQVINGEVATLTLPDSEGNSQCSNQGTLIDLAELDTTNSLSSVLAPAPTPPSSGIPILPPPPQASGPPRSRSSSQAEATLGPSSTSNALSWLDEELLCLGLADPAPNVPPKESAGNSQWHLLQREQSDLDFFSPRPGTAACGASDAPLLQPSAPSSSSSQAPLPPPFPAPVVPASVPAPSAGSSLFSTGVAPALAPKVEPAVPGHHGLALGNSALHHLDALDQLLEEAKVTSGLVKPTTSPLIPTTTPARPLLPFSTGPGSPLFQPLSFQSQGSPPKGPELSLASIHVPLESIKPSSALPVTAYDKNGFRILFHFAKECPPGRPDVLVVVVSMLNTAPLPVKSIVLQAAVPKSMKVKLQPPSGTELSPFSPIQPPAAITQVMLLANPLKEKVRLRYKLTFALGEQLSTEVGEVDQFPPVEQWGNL
UniProt Q9H3K2: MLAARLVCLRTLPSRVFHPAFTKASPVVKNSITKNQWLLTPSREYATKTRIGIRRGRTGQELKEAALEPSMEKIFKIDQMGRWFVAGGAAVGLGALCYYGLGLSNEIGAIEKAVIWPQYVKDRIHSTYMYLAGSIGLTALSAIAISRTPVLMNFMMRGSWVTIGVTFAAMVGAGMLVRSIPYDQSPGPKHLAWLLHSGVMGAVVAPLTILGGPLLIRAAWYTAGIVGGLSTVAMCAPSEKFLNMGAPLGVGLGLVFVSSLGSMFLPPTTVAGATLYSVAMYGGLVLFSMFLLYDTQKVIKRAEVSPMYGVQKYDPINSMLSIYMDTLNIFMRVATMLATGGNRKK

The targets below were run with C=CC(=O)N1CCC[C@@H](n2nc(-c3ccc(Oc4ccccc4)cc3)c3c(N)ncnc32)C1 [ibrutinib] (assay: log2 fold change, soluble protein after heating vs DMSO (PISA); higher = thermal stabilisation; K562 cells, 10 uM, 30 min; active = over 0.2 and 3.5 SD of the protein, either way, in both replicates (recomputed)).
In short: (§1)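 Soluble protein was quantified by TMTpro 16plex LC-MS/MS after channel sums were equalised. It was obtained as the supernatant after 21,000xg for 90 min from pooled aliquots of K562 cells (2×10^6 cells/mL, 10 μM compound, 30 min) heated for 3 min across 48°C-58°C and extracted in PBS with 0.5% NP-40 at 4°C. Thermal stability values are relative to control samples and come from duplicates. They are given as log2 fold changes.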

Target	log2 fold change
GGNBP2 (UniProt Q9H3C7)	inactive: 0.096
GAB1 isoform 2 (UniProt Q13480)	inactive: -0.006
FPGT (UniProt O14772)	inactive: -0.007
GALK2 (UniProt Q01415)	inactive: 0.041
G3BP2 (UniProt Q9UN86)	inactive: 0.05
GEMIN4 (UniProt P57678)	inactive: 0.114
FUNDC2 (UniProt Q9BWH2)	inactive: 0.009
FXN (UniProt Q16595)	inactive: 0.026
FRRS1 (UniProt Q6ZNA5)	inactive: 0.011
GGPS1 (UniProt O95749)	inactive: -0.035
GGH (UniProt Q92820)	inactive: 0.048
GFPT1 (UniProt Q06210)	inactive: 0.035
GAPDH (UniProt P04406)	inactive: 0.021
GCLC (UniProt P48506)	inactive: 0.002
FUBP1 (UniProt Q96AE4)	inactive: -0.035
GCHFR (UniProt P30047)	inactive: 0.043
GART (UniProt C9JZG2)	inactive: -0.178

Target	log2 fold change
GALNT6 (UniProt Q8NCL4)	inactive: 0.19
FTSJ1 (UniProt Q9UET6)	inactive: -0.004
G3BP1 (UniProt Q13283)	inactive: 0.081
GANAB isoform 2 (UniProt Q14697)	inactive: -0.036
FSCN1 (UniProt Q16658)	inactive: -0.033
FXR2 (UniProt P51116)	inactive: 0.044
FUT11 (UniProt Q495W5)	inactive: 0.045
FYCO1 isoform 4 (UniProt Q9BQS8)	inactive: -0.014
GFM1 (UniProt Q96RP9)	inactive: -0.004
GALM (UniProt Q96C23)	inactive: 0.261
FTH1 (UniProt P02794)	inactive: 0.006
GGCX (UniProt P38435)	inactive: 0.009
GGA3 (UniProt Q9NZ52)	inactive: -0.099
FRG1 (UniProt Q14331)	inactive: 0.006
GHITM (UniProt Q9H3K2)	inactive: 0.034
GFER (UniProt P55789)	inactive: -0.016

Each target was assayed with CC(=O)c1cnc2ccc(-c3cc(Cl)c(O)c(Cl)c3)nc2c1N[C@H]1CC[C@H](CN(C)C)CC1 in the same assay as above.
In short: as §1

Target	log2 fold change
GGNBP2 (UniProt Q9H3C7)	inactive: -0.082
GAB1 isoform 2 (UniProt Q13480)	inactive: 0.02
FPGT (UniProt O14772)	inactive: -0.015
GALK2 (UniProt Q01415)	inactive: -0.004
G3BP2 (UniProt Q9UN86)	inactive: 0.102
GEMIN4 (UniProt P57678)	inactive: 0.224
FUNDC2 (UniProt Q9BWH2)	inactive: -0.006
FXN (UniProt Q16595)	inactive: -0.023
FRRS1 (UniProt Q6ZNA5)	inactive: -0.049
GGPS1 (UniProt O95749)	inactive: -0.02
GGH (UniProt Q92820)	inactive: -0.003
GFPT1 (UniProt Q06210)	inactive: 0.003
GAPDH (UniProt P04406)	inactive: 0.018
GCLC (UniProt P48506)	inactive: -0.024
FUBP1 (UniProt Q96AE4)	inactive: 0.065
GCHFR (UniProt P30047)	inactive: -0.414
GART (UniProt C9JZG2)	inactive: -0.065

Target	log2 fold change
GALNT6 (UniProt Q8NCL4)	inactive: -0.045
FTSJ1 (UniProt Q9UET6)	inactive: 0.064
G3BP1 (UniProt Q13283)	inactive: 0.036
GANAB isoform 2 (UniProt Q14697)	inactive: 0
FSCN1 (UniProt Q16658)	inactive: 0.007
FXR2 (UniProt P51116)	inactive: 0.017
FUT11 (UniProt Q495W5)	inactive: -0.036
FYCO1 isoform 4 (UniProt Q9BQS8)	inactive: -0.117
GFM1 (UniProt Q96RP9)	inactive: -0.069
GALM (UniProt Q96C23)	inactive: -0.08
FTH1 (UniProt P02794)	inactive: -0.067
GGCX (UniProt P38435)	inactive: -0.053
GGA3 (UniProt Q9NZ52)	inactive: -0.018
FRG1 (UniProt Q14331)	inactive: 0.094
GHITM (UniProt Q9H3K2)	inactive: 0.013
GFER (UniProt P55789)	inactive: -0.044

What follows are targets tested with CC(C)(C)Cn1c(N)nc2ccc(-c3[nH]c(C(C)(C)C)nc3-c3ccc(F)cc3)nc21 [ralimetinib] in the same assay as above.
In short: as §1

Target	log2 fold change
GGNBP2 (UniProt Q9H3C7)	inactive: 0.024
GAB1 isoform 2 (UniProt Q13480)	inactive: 0.009
FPGT (UniProt O14772)	inactive: -0.013
GALK2 (UniProt Q01415)	inactive: -0.023
G3BP2 (UniProt Q9UN86)	inactive: 0.058
GEMIN4 (UniProt P57678)	inactive: 0.129
FUNDC2 (UniProt Q9BWH2)	inactive: -0.051
FXN (UniProt Q16595)	inactive: -0.02
FRRS1 (UniProt Q6ZNA5)	inactive: -0.033
GGPS1 (UniProt O95749)	inactive: -0.074
GGH (UniProt Q92820)	inactive: -0.06
GFPT1 (UniProt Q06210)	inactive: -0.039
GAPDH (UniProt P04406)	inactive: -0.007
GCLC (UniProt P48506)	inactive: -0.06
FUBP1 (UniProt Q96AE4)	inactive: -0.049
GCHFR (UniProt P30047)	inactive: -0.006
GART (UniProt C9JZG2)	inactive: -0.078

Target	log2 fold change
GALNT6 (UniProt Q8NCL4)	inactive: -0.142
FTSJ1 (UniProt Q9UET6)	inactive: 0.028
G3BP1 (UniProt Q13283)	inactive: 0.139
GANAB isoform 2 (UniProt Q14697)	inactive: 0.006
FSCN1 (UniProt Q16658)	inactive: 0.006
FXR2 (UniProt P51116)	inactive: 0.3
FUT11 (UniProt Q495W5)	inactive: -0.049
FYCO1 isoform 4 (UniProt Q9BQS8)	inactive: -0.015
GFM1 (UniProt Q96RP9)	inactive: -0.075
GALM (UniProt Q96C23)	inactive: -0.051
FTH1 (UniProt P02794)	inactive: 0.096
GGCX (UniProt P38435)	inactive: 0.116
GGA3 (UniProt Q9NZ52)	inactive: 0.035
FRG1 (UniProt Q14331)	inactive: 0.017
GHITM (UniProt Q9H3K2)	inactive: -0.012
GFER (UniProt P55789)	inactive: -0.113
